By UniProt entry, the sequences of proteins in these tests, tags left out.
UniProt Q64727: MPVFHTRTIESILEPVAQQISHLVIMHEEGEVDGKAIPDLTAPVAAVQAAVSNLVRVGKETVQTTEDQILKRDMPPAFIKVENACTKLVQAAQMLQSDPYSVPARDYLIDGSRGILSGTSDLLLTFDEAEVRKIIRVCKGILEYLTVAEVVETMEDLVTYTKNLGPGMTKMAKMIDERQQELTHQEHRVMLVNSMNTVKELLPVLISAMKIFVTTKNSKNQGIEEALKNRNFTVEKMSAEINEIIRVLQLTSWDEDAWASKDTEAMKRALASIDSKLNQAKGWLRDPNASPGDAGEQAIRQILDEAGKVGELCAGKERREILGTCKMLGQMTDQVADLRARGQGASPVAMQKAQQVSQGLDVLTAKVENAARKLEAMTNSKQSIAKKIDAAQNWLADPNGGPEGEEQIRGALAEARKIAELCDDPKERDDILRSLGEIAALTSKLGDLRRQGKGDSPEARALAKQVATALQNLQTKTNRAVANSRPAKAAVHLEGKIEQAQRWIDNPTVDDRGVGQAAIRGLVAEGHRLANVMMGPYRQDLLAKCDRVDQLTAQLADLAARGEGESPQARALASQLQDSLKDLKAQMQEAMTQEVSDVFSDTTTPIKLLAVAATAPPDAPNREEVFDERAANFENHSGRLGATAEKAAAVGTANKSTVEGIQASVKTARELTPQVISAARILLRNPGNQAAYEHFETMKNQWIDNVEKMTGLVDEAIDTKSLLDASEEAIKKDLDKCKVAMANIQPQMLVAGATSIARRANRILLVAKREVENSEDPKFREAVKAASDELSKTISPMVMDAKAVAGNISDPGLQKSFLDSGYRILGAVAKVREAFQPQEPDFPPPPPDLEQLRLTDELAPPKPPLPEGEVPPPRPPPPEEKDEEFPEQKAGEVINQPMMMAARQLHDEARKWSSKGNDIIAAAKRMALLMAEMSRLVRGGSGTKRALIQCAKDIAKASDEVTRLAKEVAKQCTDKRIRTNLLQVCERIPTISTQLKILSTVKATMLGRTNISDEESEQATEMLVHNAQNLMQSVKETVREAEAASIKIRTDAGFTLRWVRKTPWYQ
UniProt Q9WUP7: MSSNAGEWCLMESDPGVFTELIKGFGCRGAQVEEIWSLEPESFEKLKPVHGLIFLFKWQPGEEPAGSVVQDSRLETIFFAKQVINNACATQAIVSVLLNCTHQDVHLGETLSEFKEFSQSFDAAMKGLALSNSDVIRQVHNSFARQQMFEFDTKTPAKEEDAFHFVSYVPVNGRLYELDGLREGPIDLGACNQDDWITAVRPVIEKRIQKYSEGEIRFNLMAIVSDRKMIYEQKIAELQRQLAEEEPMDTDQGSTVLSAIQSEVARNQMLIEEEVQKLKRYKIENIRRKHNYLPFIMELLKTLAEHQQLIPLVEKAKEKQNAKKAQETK
UniProt P62334: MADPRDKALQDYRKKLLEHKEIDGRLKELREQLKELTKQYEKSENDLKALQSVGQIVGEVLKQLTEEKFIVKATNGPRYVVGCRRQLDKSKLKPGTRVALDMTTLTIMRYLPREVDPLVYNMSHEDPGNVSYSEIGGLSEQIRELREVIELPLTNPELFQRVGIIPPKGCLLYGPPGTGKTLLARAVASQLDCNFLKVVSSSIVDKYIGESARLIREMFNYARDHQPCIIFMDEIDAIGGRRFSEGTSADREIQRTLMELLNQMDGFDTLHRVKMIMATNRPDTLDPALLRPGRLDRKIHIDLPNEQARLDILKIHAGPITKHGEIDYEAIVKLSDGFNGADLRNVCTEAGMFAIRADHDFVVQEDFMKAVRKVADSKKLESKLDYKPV
UniProt Q91YR1: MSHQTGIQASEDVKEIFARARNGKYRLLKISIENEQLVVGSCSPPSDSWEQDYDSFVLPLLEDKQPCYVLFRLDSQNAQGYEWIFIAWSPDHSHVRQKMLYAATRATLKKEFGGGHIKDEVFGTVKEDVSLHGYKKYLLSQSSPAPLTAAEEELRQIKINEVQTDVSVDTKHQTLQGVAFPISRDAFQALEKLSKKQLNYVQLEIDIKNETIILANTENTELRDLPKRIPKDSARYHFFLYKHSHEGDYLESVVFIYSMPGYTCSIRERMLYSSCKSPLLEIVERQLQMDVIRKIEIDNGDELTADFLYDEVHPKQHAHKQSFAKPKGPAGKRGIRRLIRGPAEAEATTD
UniProt O88685: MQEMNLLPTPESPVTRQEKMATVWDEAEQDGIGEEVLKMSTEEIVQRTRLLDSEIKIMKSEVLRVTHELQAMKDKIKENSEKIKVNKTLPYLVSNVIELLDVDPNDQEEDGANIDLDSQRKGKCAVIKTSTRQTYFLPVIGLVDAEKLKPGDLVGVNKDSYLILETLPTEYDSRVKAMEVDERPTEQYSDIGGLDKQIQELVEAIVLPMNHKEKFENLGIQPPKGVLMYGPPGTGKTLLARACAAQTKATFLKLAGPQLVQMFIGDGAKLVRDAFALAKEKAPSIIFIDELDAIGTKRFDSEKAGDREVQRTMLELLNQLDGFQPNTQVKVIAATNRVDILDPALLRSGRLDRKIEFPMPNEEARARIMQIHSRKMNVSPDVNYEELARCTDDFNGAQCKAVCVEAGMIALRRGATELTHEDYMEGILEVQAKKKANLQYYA

In paper PMC9265697:

Each substance was assayed against Vinculin (mouse (endogenous in testicular cells and primary spermatocytes)) (UniProt Q64727) (assay: affinity purification with mass spectrometry; co-IP of endogenous VCL with polyclonal anti-Vinculin antibody (ab91459) and Protein A Dynabeads, overnight at 4 °C, from whole-cell/cytoplasmic (Cl) and nuclear (Nu) extracts of mouse testicular single-cell suspension and FACS-sorted primary (pachytene) spermatocytes; rabbit IgG isotype control; on-bead trypsin digest, nLC-MS2, label-free quantification).

binding | Substance
binds | ubiquitin carboxy-terminal hydrolase type 5 (from UniProt Q9WUP7 1-329)
binds | Psmc6 (from UniProt P62334 1-389)
binds | Twinfilin-1 (from UniProt Q91YR1 1-350)
binds | Psmc3 (from UniProt O88685 1-442)

No constants are given. Whether binding was seen depends on the method and setting. Binding seen in cells or lysates may run through a third protein. A yes stands for co-enrichment or nearness to the bait. Other partners may have been found.
